In the assay the target is purified CypD-GST (UniProt P30405). Kind of assay: GST pull-down with purified proteins.

Protein sequences, listed by entry. Tags and fused reporters are not part of them. Residues count along the entry.
UniProt P30405, residues 30-207: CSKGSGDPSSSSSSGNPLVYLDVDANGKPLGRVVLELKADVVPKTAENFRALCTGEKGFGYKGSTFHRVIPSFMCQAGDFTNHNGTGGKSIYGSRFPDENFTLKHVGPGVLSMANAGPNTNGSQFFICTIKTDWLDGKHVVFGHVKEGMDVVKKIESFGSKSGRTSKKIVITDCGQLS

Results are given in words; binding and its absence hold for the method and conditions named. Binding seen in cells or lysates may run through a third protein. Some entries that bind do so weakly or less than the wild type.

B1: purified p53Ψ (aa 102-243) (protein)
chain: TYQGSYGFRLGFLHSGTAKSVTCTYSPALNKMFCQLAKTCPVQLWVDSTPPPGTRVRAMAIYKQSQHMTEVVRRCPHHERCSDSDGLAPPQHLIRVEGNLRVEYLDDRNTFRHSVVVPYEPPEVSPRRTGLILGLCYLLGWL
For the molecule B1, the binding entry was “binds”.

(Values after patent US20170211072A1.)
